The list shows a part of the results.

Amino acid sequences for entries named in this document (tags omitted).
UniProt Q0JBA9, entry or part of it: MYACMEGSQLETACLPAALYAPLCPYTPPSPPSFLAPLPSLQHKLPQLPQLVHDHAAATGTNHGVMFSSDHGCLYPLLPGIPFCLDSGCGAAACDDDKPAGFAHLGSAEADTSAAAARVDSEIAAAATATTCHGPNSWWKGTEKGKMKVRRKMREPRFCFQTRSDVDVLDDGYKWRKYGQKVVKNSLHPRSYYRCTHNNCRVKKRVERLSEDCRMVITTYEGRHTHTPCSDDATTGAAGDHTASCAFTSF

In this assay the target is OsWRKY34 (Oryza sativa, UniProt Q0JBA9 1-250). In words: protein-binding microarray (RPBM); PBS, 2% BSA, 51.3 ng/ul salmon testes DNA, 50 uM zinc acetate, 200 nM TF, 25 C, 1 h; high values mean tight binding. Particulars: protein: recombinant; tags: N-terminal polyhistidine and DsRed monomer fusion (pET32a); label: CyDye5-dUTP incorporated in the synthesized complementary strand; 3' TTTTT single-stranded linker to array surface; dsDNA, one strand shown. Put shortly: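 Polyhistidine-tagged DsRed fusions of transcription factors, joined at the N-terminus, were expressed in E. coli BL21-CodonPlus and isolated on Ni–NTA. They were incubated at 200 nM for 1 h at 25 °C on a custom Agilent array, double-stranded and BSA-blocked, in PBS with 2% BSA, salmon testes DNA and 50 µM zinc acetate. The binding signal is per-feature fluorescence intensity (arbitrary units) read on an Axon 4000B scanner after washing.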
Turning to “AGTAATGATTTCTTCTTTTAAGATGCTCTTTGCCATGCTACGGAGTCACCTAGTGCAG”, the binding signal was 8240 fluorescence intensity (a.u.).

As to “CAGCCAGTACACACCCCACAATGCCCATCTCCTATATATACGGAGTCACCTAGTGCAG”, the binding signal is 8050 fluorescence intensity (a.u.).

“CAATTTAATCAAGTGATATTTCACATGTTGTTTTTCTTCACGGAGTCACCTAGTGCAG”: the binding signal was 8870 fluorescence intensity (a.u.).

Turning to “ACTTTTAACTAATGATCATAGTAACGTTAATTGTTATGCACGGAGTCACCTAGTGCAG”, the binding signal was 8270 fluorescence intensity (a.u.).

With “CCACCTCCACCGTCTCGTCTCCTCCCGCCAGGCCAAAAACCGGAGTCACCTAGTGCAG”, the binding signal is 8810 fluorescence intensity (a.u.).

As for “GTTGCAACTTGTATAATTTAAATTTGACCTTGCATTTTGTCGGAGTCACCTAGTGCAG”, the binding signal is 9040 fluorescence intensity (a.u.).

As for “AATATCAAACCTACTCATAACTTTTTGCAACAGTCTCATTCGGAGTCACCTAGTGCAG”, the binding signal was 8440 fluorescence intensity (a.u.).

Take “GCGTGTGTTCTTGTGCTGGATTGTGGAGTTCTTGATCCCTCGGAGTCACCTAGTGCAG”: the binding signal was 10000 fluorescence intensity (a.u.).

Consider “ACGCTTACAACATGCGCATACACGCACACCCAATCCTATGCGGAGTCACCTAGTGCAG”, for which the binding signal was 11000 fluorescence intensity (a.u.).

With “CGCCGCCTTCAGCCACCGCCGCCCCAGCGCCGCGCGCCCCCGGAGTCACCTAGTGCAG”, the binding signal was 8440 fluorescence intensity (a.u.).

For the sequence “GCCGGCCGGCCTTCTTTTGCATTTCGTTCATACTTCTTTACGGAGTCACCTAGTGCAG”, the binding signal was 12000 fluorescence intensity (a.u.).

As to “TGGCTGCCGGACTTGGGAGGGACACTGGGTTGGTTGTGGGCGGAGTCACCTAGTGCAG”, the binding signal was 9440 fluorescence intensity (a.u.).

Regarding “CCGTTTCCTGTCATCTTCTCTGACGAACCTGCAGCGGTGACGGAGTCACCTAGTGCAG”, the binding signal is 8190 fluorescence intensity (a.u.).

For the sequence “CTTCGGCAAATCCATATTCCACACCACATTGCTGCCATATCGGAGTCACCTAGTGCAG”, the binding signal is 13700 fluorescence intensity (a.u.).

Regarding “TTGTGCTGCTCGTGTTTGCGTTCATTCAGGTCAAAAGATGCGGAGTCACCTAGTGCAG”, the binding signal is 8090 fluorescence intensity (a.u.).

As for “TTTGATCCTGTTATCAATTTGCATACATTTCATTATTTTACGGAGTCACCTAGTGCAG”, the binding signal was 9700 fluorescence intensity (a.u.).

Consider “TATAATTAAGTCCCGTTTTGATTGCTATTTTGGTTGGTTTCGGAGTCACCTAGTGCAG”, for which the binding signal is 10100 fluorescence intensity (a.u.).

For “AATTGAATCAGACTTTCTTTTTTTGTTTTAATGTTTTTTCCGGAGTCACCTAGTGCAG”, the binding signal is 9050 fluorescence intensity (a.u.).

On to “TCGCACGCCGCGACGCCTCTGCTGAACATTTCGCTCTCTTCGGAGTCACCTAGTGCAG”, for which the binding signal was 9430 fluorescence intensity (a.u.).

Take “ATCAGTAGTCCTTTTCAAAACTGGAACCGTTGTTGCATCACGGAGTCACCTAGTGCAG”: the binding signal was 8270 fluorescence intensity (a.u.).

Turning to “GTGGGTTGATATCTAGAAATGTTTATACTAGGAACGAAGTCGGAGTCACCTAGTGCAG”, the binding signal was 8880 fluorescence intensity (a.u.).

“CTTCGCTTTCGCTCTCGCGGTCTCGCCGTCCTCCTCTTATCGGAGTCACCTAGTGCAG”: the binding signal is 8630 fluorescence intensity (a.u.).

In the case of “CGCCGTCGCCTCACCATCTCATCCGTCTCGAAATCCCGCCCGGAGTCACCTAGTGCAG”, the binding signal is 8470 fluorescence intensity (a.u.).

Take “GTGTGTTGTTAGCTGTAAATATTACTTCATGGAGAAAATTCGGAGTCACCTAGTGCAG”: the binding signal was 10800 fluorescence intensity (a.u.).

For the sequence “AGAACTTCCCCTTCTCAGTGACATATGTTCCATTATCCGCCGGAGTCACCTAGTGCAG”, the binding signal is 8870 fluorescence intensity (a.u.).

As to “GATACCCTAATACCAGTTGTATTCTTTAGTTAAACTTTTTCGGAGTCACCTAGTGCAG”, the binding signal was 8320 fluorescence intensity (a.u.).

Consider “TGTGGCGTTGACCACCGACGTTGAAAATGGAAGCGCACATCGGAGTCACCTAGTGCAG”, for which the binding signal was 11900 fluorescence intensity (a.u.).

For the sequence “CCATTCATCAACTACACCTCACTCTCTGGCGCGTCTGCCTCGGAGTCACCTAGTGCAG”, the binding signal is 8110 fluorescence intensity (a.u.).

In the case of “TGGTCGTCTCGTCGTCATCGCCTCGTCGCCTCATCTCGATCGGAGTCACCTAGTGCAG”, the binding signal was 15100 fluorescence intensity (a.u.).

As to “TCTCTCCCTTATCGCTTCGCCCTTCCTTTTCCGCTCTCTTCGGAGTCACCTAGTGCAG”, the binding signal is 8600 fluorescence intensity (a.u.).

As to “GGCCGGTAGGGGTAGAACGGTCATTTCGTGCGCGGGGAGGCGGAGTCACCTAGTGCAG”, the binding signal is 9810 fluorescence intensity (a.u.).

“TCTTCTGAATCTTGTTTGCTTTTACCAACATGCCATGTGTCGGAGTCACCTAGTGCAG”: the binding signal is 8100 fluorescence intensity (a.u.).

For the sequence “CCCATCATGTGACTTCCATCCTTGTTCCTAGCTGCATGCACGGAGTCACCTAGTGCAG”, the binding signal is 9270 fluorescence intensity (a.u.).

As to “GATGTCGAGCTGAGCACCACCCTAGCGGTGGAGTAGGGGACGGAGTCACCTAGTGCAG”, the binding signal was 8240 fluorescence intensity (a.u.).

On to “GTTGCAAAAGAGGCCTCTGACATGGTTCTTGCTGATGACACGGAGTCACCTAGTGCAG”, for which the binding signal was 8450 fluorescence intensity (a.u.).

For “GACCATTTTTTTTCTTGTTAAACACCAATAGTACTAGTAGCGGAGTCACCTAGTGCAG”, the binding signal is 10200 fluorescence intensity (a.u.).

In the case of “CTGTCATGCTGTCTCGCAGTCCAATTTTGCCTCCAAGCATCGGAGTCACCTAGTGCAG”, the binding signal is 8600 fluorescence intensity (a.u.).

Consider “CACCGCCGCGTCGTCCCGCGTCTCTCCTCACCTCTCGTCTCGGAGTCACCTAGTGCAG”, for which the binding signal is 8200 fluorescence intensity (a.u.).

As for “CGACTCCGACCTCTGCTCTCTTCCTTTTACACCCCATATCCGGAGTCACCTAGTGCAG”, the binding signal is 11100 fluorescence intensity (a.u.).

Consider “TGCTCATTAACAACAACTTGGTTCTGGAGTCCATCCTCTCCGGAGTCACCTAGTGCAG”, for which the binding signal was 9850 fluorescence intensity (a.u.).

In the case of “CAGCTCTGTTCTTCATCCAACCGATAGTATGCCAACTGATCGGAGTCACCTAGTGCAG”, the binding signal was 8190 fluorescence intensity (a.u.).

On to “CTTTGCATCAAATCTGGCCGAATCTTTCTCGATCTCCCAACGGAGTCACCTAGTGCAG”, for which the binding signal was 10100 fluorescence intensity (a.u.).

Values taken from PMC7819943, “Rice protein-binding microarrays: a tool to detect cis-acting elements near promoter regions in rice”.
